Assay results from PMC3931652.
These are yes or no findings as the source states them, for the method shown. In cells and extracts the contact can be indirect. Some binding calls cover weakened binding; strength is not graded here.

Chains of the proteins cited; added tags and fusions are not shown.
UniProt P28574: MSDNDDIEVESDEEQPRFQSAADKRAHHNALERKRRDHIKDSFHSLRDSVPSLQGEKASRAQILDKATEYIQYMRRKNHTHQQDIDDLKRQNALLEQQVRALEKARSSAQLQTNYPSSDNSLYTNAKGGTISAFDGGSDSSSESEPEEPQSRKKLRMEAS
UniProt P01106: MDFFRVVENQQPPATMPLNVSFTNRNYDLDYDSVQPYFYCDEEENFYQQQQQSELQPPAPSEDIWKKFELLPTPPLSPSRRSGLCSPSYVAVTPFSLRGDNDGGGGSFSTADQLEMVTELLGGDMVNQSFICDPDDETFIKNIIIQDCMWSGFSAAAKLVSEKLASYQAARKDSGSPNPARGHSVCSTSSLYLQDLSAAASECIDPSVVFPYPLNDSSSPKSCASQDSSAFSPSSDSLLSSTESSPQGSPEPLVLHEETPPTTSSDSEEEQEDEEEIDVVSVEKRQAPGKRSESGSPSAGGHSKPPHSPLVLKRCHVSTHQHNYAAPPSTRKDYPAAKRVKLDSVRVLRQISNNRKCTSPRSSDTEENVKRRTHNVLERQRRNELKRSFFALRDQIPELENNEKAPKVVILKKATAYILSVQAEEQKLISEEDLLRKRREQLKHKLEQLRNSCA

Tests used:
[1] = target: endogenous Max (mouse (endogenous in mouse ESCs)) (UniProt P28574); assay: co-IP; immunoprecipitation of endogenous Max with specific antibody and protein G magnetic beads from micrococcal nuclease-treated nuclear extracts of stable ESC clones; overnight at 4°C; washed with digestion buffer with 0.1% NP-40; western blot; rabbit IgG as negative control
V5-tagged Myc (V5-Myc) = V5-tagged Myc (V5-Myc) (UniProt P01106); assay: co-IP; immunoprecipitation of exogenous tagged Myc with the corresponding anti-tag affinity beads from nuclear extracts of stable ESC clones; washed with digestion buffer with 0.1% NP-40; western blot for endogenous Max
[2] = target: biotin-tagged Myc (Bio-Myc) (UniProt P01106); assay: as above
[3] = target: FLAG-HA-tagged Myc (FLAG-HA-Myc) (UniProt P01106); assay: as above

Row | Substance | binding [1] | binding (V5-tagged Myc (V5-Myc)) | binding [2] | binding [3]
1 | biotin-tagged Myc (Bio-Myc) (from UniProt P01106 1-454) | binds | – | – | –
2 | V5-tagged Myc (V5-Myc) (from UniProt P01106 1-454) | binds | – | – | –
3 | FLAG-HA-tagged Myc (FLAG-HA-Myc) (from UniProt P01106 1-454) | binds | – | – | –
4 | endogenous Max (from UniProt P28574 1-160) | – | binds | binds | binds
